The assay deals with eEF2 kinase (Homo sapiens, UniProt O00418). Description: eEF2 kinase activity assay with purified eEF2 (33P-ATP, SDS-PAGE, autoradiography). The assay is classed as biochemical. As to conditions: purified eEF2, FIG. 1. How it is done: FIG. 1 illustrates eEF2 kinase activity assay with purified eEF2 and with different concentration of identified inhibitors.
FIG. 1 illustrates eEF2 kinase activity assay with purified eEF2 and with different concentration of identified inhibitors. Recombinant eEF2 kinase (0.5 μg) was incubated with purified rabbit reticulocyte eEF2 (0.5 μg) in a reaction mixture consisting of 50 mM Hepes-KOH pH 6.6, 10 mM magnesium acetate, 5 mM DTT, 100 μM CaCl2, 0.5 μg calmodulin, 50 μM ATP, and 0.2 μCi [γ-^33P]-ATP (3000 Ci/mmol). The reactions were run at 30° C. for 15 minutes, and were terminated by incubation in an ice/water bath and addition of Laemmli sample buffer. Samples were analyzed by SDS-PAGE and autoradiography.

In the case of `CCCCCCCCCCCCCCCCn1cc[n+](-c2ccccc2)c1` [L-207], the “inhibition of eEF2 kinase in vitro” value is recorded as “specific inhibitors of eEF2 kinasae”.
To `CCCCCCCCCCCCCCCCN1C2=NCCCN2c2ccccc21` [L-587] belongs “specific inhibitors of eEF2 kinasae”.

Values taken from patent publication US20120178769A1, “NOVEL COMPOUNDS FOR INHIBITING EEF-2 KINASE ACTIVITY” (The University of Medicine and Dentistry, priority 2009, published 2012).
